Assay results published in PMC7062800.
Construct, isoform or probe ends are uncertain for at least one entry. No signal at the amounts used counts as a negative. For part of these data: At least one verdict rests on a figure or table, not on a statement of the authors. For part of these data: Weaker means in comparison with the reference protein, sequence or condition of that experiment.

Tests used:
[1] = test system: RdhK1 (CprK4) (Desulfitobacterium hafniense DCB-2); assay: EMSA; conditions: EMSA: 100 ng DNA, 2 uM protein, 200 uM effector, 15 uL, 40% glycerol, 10 mM MgCl2, 500 mM NaCl, 5 mM EDTA, 10 mM DTT, 30 min, recombinant protein
[2] = test system: RdhK6 (CprK1) (Desulfitobacterium hafniense DCB-2); assay: EMSA; conditions: EMSA: 100 ng DNA, 2 uM protein, 200 uM effector, 15 uL, 40% glycerol, 10 mM MgCl2, 500 mM NaCl, 5 mM EDTA, 10 mM DTT, 30 min, recombinant protein

Sequence | binding result ([1]; 200 uM 3,5-DCP) | binding result ([1]; 200 uM Cl-OHPA) | binding result ([2]; 200 uM 3,5-DCP) | binding result ([2]; no effector) | binding result ([1]; Cl-OHPA or 3,5-DCP) | binding result ([2]; Cl-OHPA or 3,5-DCP)
GAATTCTCAGGCGATGTAACCGCTTTCAAAGTTAATACACATTAATACTCTTAACAATGTGATAGCTATGATTGCACCG (double strand) [mgl-DB7] | binds more weakly | binds more weakly | no binding | no binding | – | –
GAATTCTCAGGCGATGTAACCGCTTTCAGCCTCTAGTGGCTGGCTTGATCTTAACAATGTGATAGCTATGATTGCACCG (double strand) [mgl-noDB] | – | – | – | – | no binding | no binding
